PMC12327844

Legend:
[1] = target: T1, GST-tagged GtGpsB (Geobacillus thermodenitrificans NG80-2) (UniProt A4IN56); test: pull-down; GST pulldown with GST-tagged GtGpsB as bait, with and without ATP ('+'); samples incubated at room temperature for an hour before SDS-PAGE loading (Figure S7); both purified
T1 sequence: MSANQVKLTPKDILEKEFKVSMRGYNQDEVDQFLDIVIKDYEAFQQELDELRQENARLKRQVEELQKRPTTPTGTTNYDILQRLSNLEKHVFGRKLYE

[2] = target: T1, GST-tagged GtGpsB (Geobacillus thermodenitrificans NG80-2); test: pull-down; GST pulldown with 2 mM ADP; 1 nmol GST-tagged bait on glutathione agarose beads, 10 nmol prey; SEC buffer, room temperature; Coomassie-stained SDS-PAGE; both purified
[3] = target: T2, GST-GtFliY-N36 (Geobacillus thermodenitrificans NG80-2); test: pull-down; GST pulldown with 2 mM ATP; 1 nmol GST-tagged bait on glutathione agarose beads, 10 nmol prey; SEC buffer, room temperature; Coomassie-stained SDS-PAGE; both purified
T2 sequence: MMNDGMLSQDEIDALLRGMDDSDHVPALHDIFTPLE

[4] = target: T1, GST-tagged GtGpsB (Geobacillus thermodenitrificans NG80-2); test: as above
[5] = target: T2, GST-GtFliY-N36 (Geobacillus thermodenitrificans NG80-2); test: pull-down; GST pulldown, no nucleotide (Apo); 1 nmol GST-tagged bait on glutathione agarose beads, 10 nmol prey; SEC buffer (20 mM HEPES pH 7.5, 200 mM NaCl, 20 mM KCl, 20 mM MgCl2), room temperature; Coomassie-stained SDS-PAGE; both purified
[6] = target: T1, GST-tagged GtGpsB (Geobacillus thermodenitrificans NG80-2); test: as above
[7] = target: T1, GST-tagged GtGpsB (Geobacillus thermodenitrificans NG80-2); test: pull-down; GST pulldown, nucleotide not stated for these panels (Figure S6, Figure 3b); GST-tagged bait on glutathione agarose beads; SEC buffer, room temperature; Coomassie-stained SDS-PAGE; both purified

Substance: GtFlhG D60A (Geobacillus thermodenitrificans NG80-2)
binding [1]: binds

Substance: GtFlhG R207E (Geobacillus thermodenitrificans NG80-2)
binding [7]: binds weakly

Substance: GtFlhG K36A (Geobacillus thermodenitrificans NG80-2)
binding [1]: no binding (tested: 10 nmol of prey protein)

Substance: GtFlhG-ΔMTS (Geobacillus thermodenitrificans NG80-2) (domain or fragment)
binding [2]: binds weakly
binding [4]: binds
binding [6]: binds weakly

Substance: GtFlhG F215S (Geobacillus thermodenitrificans NG80-2)
binding [7]: binds weakly

More lines, now with the values ahead:

binding [2]: binds weakly
binding [3]: binds
binding [4]: binds
binding [5]: binds
binding [6]: binds weakly
Substance: GtFlhG (from UniProt A4IMB4)

binding [4]: binds
Substance: GtPBP1^1-33 (Geobacillus thermodenitrificans NG80-2) (domain or fragment)

These are yes or no findings as the source states them, for the method shown. A result given as binding can be weak or reduced; the word gives no strength. Where a sequence is shown, tags or fusion partners need not be part of it. One block for each substance: values may come before it.
